Test results from the supplement of paper PMC10849652.
Some of the results follow.

By UniProt entry, the sequences of proteins in these tests, tags left out. Where a name states a change or a piece, a line headed by the entry shows the natural chain unless it says otherwise.
UniProt Q8WVK2: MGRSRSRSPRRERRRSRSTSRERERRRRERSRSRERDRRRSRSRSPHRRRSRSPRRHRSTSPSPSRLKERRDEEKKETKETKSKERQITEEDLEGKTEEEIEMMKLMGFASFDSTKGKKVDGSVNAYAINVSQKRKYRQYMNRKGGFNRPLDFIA
UniProt O75391: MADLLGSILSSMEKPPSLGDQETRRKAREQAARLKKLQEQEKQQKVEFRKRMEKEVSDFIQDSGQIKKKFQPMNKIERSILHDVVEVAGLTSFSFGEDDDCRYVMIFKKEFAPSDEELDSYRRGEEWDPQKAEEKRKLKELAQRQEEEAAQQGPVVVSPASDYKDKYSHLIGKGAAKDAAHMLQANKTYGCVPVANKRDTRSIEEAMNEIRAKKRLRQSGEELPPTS
UniProt O60493, whole entry, looked up: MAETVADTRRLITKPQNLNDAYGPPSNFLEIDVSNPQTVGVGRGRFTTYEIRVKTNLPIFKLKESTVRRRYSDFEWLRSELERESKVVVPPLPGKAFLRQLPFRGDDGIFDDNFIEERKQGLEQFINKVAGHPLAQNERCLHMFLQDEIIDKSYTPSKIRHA
UniProt Q6GMV2: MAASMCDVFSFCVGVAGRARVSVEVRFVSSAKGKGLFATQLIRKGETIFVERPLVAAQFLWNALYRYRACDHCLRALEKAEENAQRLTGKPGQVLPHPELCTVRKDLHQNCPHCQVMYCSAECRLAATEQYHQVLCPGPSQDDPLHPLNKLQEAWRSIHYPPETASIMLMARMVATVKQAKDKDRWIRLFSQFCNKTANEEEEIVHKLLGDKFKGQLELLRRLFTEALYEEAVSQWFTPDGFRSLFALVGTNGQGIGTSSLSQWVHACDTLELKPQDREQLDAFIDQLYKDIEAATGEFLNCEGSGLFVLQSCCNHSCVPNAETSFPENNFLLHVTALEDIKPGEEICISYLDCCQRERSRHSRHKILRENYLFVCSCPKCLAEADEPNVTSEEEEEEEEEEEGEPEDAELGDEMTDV
UniProt P08621, whole entry, looked up: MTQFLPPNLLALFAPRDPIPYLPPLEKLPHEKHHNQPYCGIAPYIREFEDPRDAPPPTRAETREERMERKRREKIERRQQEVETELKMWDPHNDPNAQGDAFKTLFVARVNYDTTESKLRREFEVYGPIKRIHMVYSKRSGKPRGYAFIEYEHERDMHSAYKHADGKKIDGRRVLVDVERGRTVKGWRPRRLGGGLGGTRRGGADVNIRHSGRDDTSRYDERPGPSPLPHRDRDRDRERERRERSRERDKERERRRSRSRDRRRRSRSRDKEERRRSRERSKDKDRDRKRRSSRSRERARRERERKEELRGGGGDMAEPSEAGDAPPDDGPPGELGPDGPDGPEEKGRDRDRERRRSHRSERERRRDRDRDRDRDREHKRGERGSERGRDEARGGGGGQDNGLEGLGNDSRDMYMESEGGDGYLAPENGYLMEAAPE
UniProt P04179: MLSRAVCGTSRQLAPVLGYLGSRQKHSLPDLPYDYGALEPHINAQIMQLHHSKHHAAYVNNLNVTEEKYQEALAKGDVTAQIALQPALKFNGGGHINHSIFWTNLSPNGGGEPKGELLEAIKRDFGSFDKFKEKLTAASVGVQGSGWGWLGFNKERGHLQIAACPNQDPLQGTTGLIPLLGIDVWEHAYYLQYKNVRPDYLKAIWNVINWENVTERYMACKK
UniProt Q9Y5X2: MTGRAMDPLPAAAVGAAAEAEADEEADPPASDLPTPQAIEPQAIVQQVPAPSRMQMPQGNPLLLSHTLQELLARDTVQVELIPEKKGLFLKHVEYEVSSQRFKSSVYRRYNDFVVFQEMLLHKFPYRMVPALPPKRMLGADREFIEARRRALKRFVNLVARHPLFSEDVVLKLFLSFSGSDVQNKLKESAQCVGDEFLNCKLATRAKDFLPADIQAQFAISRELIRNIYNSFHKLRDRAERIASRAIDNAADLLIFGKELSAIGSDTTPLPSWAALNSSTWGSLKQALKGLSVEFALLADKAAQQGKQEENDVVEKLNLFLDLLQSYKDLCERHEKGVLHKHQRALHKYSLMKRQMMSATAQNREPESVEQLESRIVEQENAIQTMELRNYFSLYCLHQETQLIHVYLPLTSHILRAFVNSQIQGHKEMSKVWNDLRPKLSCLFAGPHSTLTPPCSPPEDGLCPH
UniProt O60906: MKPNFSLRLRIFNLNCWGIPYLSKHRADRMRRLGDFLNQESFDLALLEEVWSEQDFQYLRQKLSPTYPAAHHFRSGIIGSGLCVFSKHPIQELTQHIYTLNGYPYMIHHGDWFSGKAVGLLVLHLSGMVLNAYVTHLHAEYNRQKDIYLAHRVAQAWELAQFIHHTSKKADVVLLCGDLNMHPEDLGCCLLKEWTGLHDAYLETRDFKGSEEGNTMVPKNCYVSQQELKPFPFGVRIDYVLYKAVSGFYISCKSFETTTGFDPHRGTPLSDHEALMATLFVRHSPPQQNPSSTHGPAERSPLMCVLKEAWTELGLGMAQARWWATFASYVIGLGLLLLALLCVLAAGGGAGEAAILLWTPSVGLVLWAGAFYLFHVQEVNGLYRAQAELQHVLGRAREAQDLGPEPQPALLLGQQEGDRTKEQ
UniProt Q15796, whole entry, looked up: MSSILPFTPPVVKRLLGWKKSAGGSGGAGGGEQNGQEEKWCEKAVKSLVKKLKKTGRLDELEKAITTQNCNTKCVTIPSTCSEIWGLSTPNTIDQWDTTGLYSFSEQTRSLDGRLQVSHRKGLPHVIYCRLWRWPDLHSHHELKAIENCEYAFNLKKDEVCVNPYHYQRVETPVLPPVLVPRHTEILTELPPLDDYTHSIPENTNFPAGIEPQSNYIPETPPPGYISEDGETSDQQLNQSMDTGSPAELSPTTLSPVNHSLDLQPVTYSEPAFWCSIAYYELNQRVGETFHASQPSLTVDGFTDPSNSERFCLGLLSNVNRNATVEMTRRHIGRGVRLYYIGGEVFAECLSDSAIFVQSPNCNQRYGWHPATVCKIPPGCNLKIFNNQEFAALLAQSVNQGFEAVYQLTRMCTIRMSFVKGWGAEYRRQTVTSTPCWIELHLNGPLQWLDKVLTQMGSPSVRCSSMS
UniProt Q96SB8: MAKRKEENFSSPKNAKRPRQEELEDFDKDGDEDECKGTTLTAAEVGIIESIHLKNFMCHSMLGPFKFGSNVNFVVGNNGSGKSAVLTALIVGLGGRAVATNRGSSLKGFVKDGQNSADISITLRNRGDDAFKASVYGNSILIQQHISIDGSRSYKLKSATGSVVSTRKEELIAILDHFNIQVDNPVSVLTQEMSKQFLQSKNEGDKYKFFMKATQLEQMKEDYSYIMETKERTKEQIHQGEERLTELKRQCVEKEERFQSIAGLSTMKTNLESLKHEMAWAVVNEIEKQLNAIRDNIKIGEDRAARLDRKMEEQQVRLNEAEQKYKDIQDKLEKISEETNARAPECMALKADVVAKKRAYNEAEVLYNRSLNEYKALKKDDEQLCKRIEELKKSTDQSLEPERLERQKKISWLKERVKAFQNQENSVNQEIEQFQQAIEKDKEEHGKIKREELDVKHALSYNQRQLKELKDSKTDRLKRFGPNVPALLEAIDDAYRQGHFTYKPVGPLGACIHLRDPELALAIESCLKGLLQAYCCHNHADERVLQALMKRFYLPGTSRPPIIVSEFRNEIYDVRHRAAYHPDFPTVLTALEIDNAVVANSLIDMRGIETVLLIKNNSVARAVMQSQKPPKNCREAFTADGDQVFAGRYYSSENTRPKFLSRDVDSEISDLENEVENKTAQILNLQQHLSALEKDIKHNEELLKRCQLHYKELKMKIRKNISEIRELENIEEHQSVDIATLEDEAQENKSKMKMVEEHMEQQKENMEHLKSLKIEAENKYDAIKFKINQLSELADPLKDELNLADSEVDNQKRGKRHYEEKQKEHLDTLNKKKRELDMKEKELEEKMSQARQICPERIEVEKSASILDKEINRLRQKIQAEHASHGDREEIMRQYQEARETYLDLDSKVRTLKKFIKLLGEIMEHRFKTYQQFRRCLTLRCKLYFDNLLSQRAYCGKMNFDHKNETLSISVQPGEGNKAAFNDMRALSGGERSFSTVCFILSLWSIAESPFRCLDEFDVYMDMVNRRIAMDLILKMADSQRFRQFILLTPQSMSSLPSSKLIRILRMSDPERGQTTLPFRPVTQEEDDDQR
UniProt Q16637, whole entry, looked up: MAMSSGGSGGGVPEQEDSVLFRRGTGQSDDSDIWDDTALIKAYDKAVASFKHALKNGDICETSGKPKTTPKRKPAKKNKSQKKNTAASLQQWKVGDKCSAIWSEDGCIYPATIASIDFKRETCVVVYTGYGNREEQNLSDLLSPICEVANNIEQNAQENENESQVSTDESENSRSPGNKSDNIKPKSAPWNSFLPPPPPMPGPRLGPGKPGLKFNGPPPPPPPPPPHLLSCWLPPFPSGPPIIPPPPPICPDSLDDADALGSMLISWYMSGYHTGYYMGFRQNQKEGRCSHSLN
UniProt P00441, whole entry, looked up: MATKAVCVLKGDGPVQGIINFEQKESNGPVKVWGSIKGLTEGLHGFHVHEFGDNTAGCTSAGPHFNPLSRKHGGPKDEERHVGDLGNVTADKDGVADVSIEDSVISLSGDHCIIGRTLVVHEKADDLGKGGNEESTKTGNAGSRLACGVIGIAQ
UniProt Q13485: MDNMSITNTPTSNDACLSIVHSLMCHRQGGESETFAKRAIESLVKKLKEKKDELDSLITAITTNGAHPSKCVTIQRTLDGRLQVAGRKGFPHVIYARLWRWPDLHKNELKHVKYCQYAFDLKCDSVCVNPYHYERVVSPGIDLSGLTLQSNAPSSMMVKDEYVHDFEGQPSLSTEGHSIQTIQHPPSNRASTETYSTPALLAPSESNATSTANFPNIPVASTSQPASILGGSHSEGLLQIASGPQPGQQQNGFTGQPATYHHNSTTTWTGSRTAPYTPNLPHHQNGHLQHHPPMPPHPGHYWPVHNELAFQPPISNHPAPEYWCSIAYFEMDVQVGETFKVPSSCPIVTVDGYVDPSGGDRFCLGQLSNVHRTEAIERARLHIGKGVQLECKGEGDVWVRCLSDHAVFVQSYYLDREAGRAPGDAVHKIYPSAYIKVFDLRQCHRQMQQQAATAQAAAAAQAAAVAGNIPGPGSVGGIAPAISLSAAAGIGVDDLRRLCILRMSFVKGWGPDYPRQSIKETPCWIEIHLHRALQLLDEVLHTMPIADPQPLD
UniProt P09012, whole entry, looked up: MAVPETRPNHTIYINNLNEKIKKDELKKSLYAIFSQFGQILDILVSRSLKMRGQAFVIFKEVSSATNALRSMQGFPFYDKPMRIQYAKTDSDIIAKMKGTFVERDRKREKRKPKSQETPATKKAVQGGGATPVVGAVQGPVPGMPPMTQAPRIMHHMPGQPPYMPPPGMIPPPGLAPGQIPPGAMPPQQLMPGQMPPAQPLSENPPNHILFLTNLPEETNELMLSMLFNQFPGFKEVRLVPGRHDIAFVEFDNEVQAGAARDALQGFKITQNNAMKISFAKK
UniProt Q13596, whole entry, looked up: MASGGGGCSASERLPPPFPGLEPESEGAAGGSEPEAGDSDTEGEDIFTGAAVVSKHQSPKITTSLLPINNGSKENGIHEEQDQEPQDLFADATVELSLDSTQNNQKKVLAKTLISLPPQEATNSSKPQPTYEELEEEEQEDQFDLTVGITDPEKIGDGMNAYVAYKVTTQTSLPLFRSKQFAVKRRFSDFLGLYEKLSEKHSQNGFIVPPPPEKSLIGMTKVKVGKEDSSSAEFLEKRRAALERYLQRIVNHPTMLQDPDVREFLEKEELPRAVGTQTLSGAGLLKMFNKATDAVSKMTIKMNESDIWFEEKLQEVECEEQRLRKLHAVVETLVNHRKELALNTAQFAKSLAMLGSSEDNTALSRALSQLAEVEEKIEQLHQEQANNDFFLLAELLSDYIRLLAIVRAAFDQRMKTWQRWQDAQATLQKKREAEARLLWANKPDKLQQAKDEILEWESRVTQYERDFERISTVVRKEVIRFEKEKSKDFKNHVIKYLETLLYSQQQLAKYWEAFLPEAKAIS

Legend:
Experiment in all cases: log2 fold change, soluble protein after heating vs DMSO (PISA); higher = thermal stabilisation; K562 cells, 10 uM, 30 min; active = over 0.2 and 3.5 SD of the protein, either way, in both replicates (recomputed)
bafetinib = compound: Cc1ccc(NC(=O)c2ccc(CN3CC[C@H](N(C)C)C3)c(C(F)(F)F)c2)cc1Nc1nccc(-c2cncnc2)n1 [bafetinib]
Method in brief: (§1)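 K562 cells (2×10^6 cells/mL) were treated with 10 μM compound for 30 min, and aliquots were heated for 3 min over 48°C-58°C. Pooled aliquots were extracted in PBS with 0.5% NP-40 at 4°C, and the supernatant after 21,000xg for 90 min was measured by TMTpro 16plex LC-MS/MS with channel sums equalised. Reported thermal stability, relative to control samples and from duplicates, is a log2 fold change.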

[1] = compound: Cc1cccc(CC(=O)N2CCc3c2ccc(-c2cn(C)c4ncnc(N)c24)c3F)n1
Method in brief: as §1

nilotinib = compound: Cc1cn(-c2cc(NC(=O)c3ccc(C)c(Nc4nccc(-c5cccnc5)n4)c3)cc(C(F)(F)F)c2)cn1 [nilotinib]
Method in brief: as §1

[2] = compound: Cc1nc(Nc2n[nH]c3c2CN(C(=O)N[C@H](CN(C)C)c2ccccc2)C3(C)C)c2sccc2n1
Method in brief: as §1

dasatinib = compound: Cc1nc(Nc2ncc(C(=O)Nc3c(C)cccc3Cl)s2)cc(N2CCN(CCO)CC2)n1 [dasatinib]
Method in brief: as §1

[3] = compound: Cc1ncc(-c2ccnc(Nc3ccc(S(C)(=O)=O)cc3)n2)n1C(C)C
Method in brief: as §1

[4] = compound: Cn1cc(-c2ccc3c(c2)CCN3C(=O)Cc2cccc(C(F)(F)F)c2)c2c(N)ncnc21
Method in brief: as §1

[5] = compound: Cn1cc(-c2ccc3nnc(C(F)(F)c4ccc5ncccc5c4)n3n2)cn1
Method in brief: as §1

tipifarnib = compound: Cn1cncc1[C@@](N)(c1ccc(Cl)cc1)c1ccc2c(c1)c(-c1cccc(Cl)c1)cc(=O)n2C [tipifarnib]
Method in brief: as §1

mubritinib = compound: FC(F)(F)c1ccc(/C=C/c2nc(COc3ccc(CCCCn4ccnn4)cc3)co2)cc1 [mubritinib]
Method in brief: as §1

[6] = compound: NC(=O)Nc1cc(-c2cccc(F)c2)sc1C(=O)N[C@H]1CCCNC1
Method in brief: as §1

[7] = compound: NC(=O)c1cnc(N[C@@H]2CCCC[C@@H]2N)nc1Nc1cccc(-n2nccn2)c1
Method in brief: as §1

[8] = compound: NC1(c2ccc(-c3nc4ccn5c(=O)[nH]nc5c4cc3-c3ccccc3)cc2)CCC1
Method in brief: as §1

[9] = compound: NCC(=O)Nc1ccc(-n2nc(C(F)(F)F)cc2-c2ccc3c(ccc4ccccc43)c2)cc1
Method in brief: as §1

entinostat = compound: Nc1ccccc1NC(=O)c1ccc(CNC(=O)OCc2cccnc2)cc1 [entinostat]
Method in brief: as §1

vorinostat = compound: O=C(CCCCCCC(=O)Nc1ccccc1)NO [vorinostat]
Method in brief: as §1

citarinostat = compound: O=C(CCCCCCNC(=O)c1cnc(N(c2ccccc2)c2ccccc2Cl)nc1)NO [citarinostat]
Method in brief: as §1

silmitasertib = compound: O=C(O)c1ccc2c(c1)nc(Nc1cccc(Cl)c1)c1ccncc12 [silmitasertib]
Method in brief: as §1

[10] = compound: O=C1NC(=O)C(c2cnc3ccccn23)=C1c1cn2c3c(cc(F)cc13)CN(C(=O)N1CCCCC1)CC2
Method in brief: as §1

[11] = compound: c1cc(OCCN2CCCCC2)cc(-c2n[nH]c3ccc(-c4nnc[nH]4)cc23)c1
Method in brief: as §1

Target | log2 fold change (bafetinib) | log2 fold change [1] | log2 fold change (nilotinib) | log2 fold change [2] | log2 fold change (dasatinib) | log2 fold change [3] | log2 fold change [4] | log2 fold change [5] | log2 fold change (tipifarnib) | log2 fold change (mubritinib) | log2 fold change [6] | log2 fold change [7] | log2 fold change [8] | log2 fold change [9] | log2 fold change (entinostat) | log2 fold change (vorinostat) | log2 fold change (citarinostat) | log2 fold change (silmitasertib) | log2 fold change [10] | log2 fold change [11]
SNRNP27 (UniProt Q8WVK2) | inactive: -0.015 | inactive: -0.079 | inactive: 0.087 | active: -0.487 | inactive: 0.045 | inactive: -0.064 | inactive: -0.078 | inactive: 0.031 | inactive: 0.032 | inactive: 0.059 | inactive: 0.022 | inactive: -0.015 | inactive: -0.034 | inactive: -0.043 | inactive: -0.024 | inactive: -0.008 | inactive: -0.003 | inactive: 0.06 | inactive: 0.038 | inactive: -0.025
SPAG7 (UniProt O75391) | inactive: -0.031 | inactive: -0.048 | inactive: 0.01 | inactive: -0.008 | inactive: 0.004 | inactive: -0.003 | inactive: -0.009 | inactive: 0.025 | inactive: 0.035 | inactive: 0.035 | inactive: 0.034 | inactive: 0.019 | inactive: -0.023 | inactive: 0.009 | inactive: -0.001 | inactive: -0.016 | inactive: 0.011 | inactive: 0.01 | inactive: -0.049 | inactive: -0.031
SNX3 (UniProt O60493) | inactive: 0.01 | inactive: 0.032 | inactive: -0.034 | inactive: 0.035 | inactive: -0.163 | active: -0.339 | inactive: -0.03 | inactive: 0.001 | inactive: 0.019 | inactive: -0.108 | inactive: -0.014 | inactive: -0.241 | inactive: -0.19 | inactive: -0.001 | inactive: 0.025 | inactive: 0.105 | inactive: 0.048 | inactive: 0.132 | inactive: -0.037 | inactive: -0.116
SMYD5 (UniProt Q6GMV2) | inactive: -0.033 | inactive: 0.002 | inactive: -0.035 | inactive: -0.019 | inactive: -0.017 | inactive: 0 | inactive: 0.024 | inactive: -0.026 | inactive: -0.012 | inactive: -0.017 | inactive: 0.03 | inactive: -0.044 | inactive: 0.018 | inactive: -0.005 | inactive: 0.018 | inactive: -0.011 | inactive: 0.044 | inactive: -0.014 | inactive: -0.097 | inactive: 0.051
SNRNP70 (UniProt P08621) | inactive: 0.132 | inactive: -0.066 | inactive: 0.05 | inactive: -0.256 | inactive: 0.174 | inactive: 0.259 | inactive: -0.215 | inactive: -0.198 | inactive: 0.083 | inactive: -0.114 | inactive: -0.042 | inactive: 0.005 | inactive: 0.27 | inactive: 0.018 | inactive: -0.055 | inactive: -0.025 | inactive: -0.079 | inactive: 0.154 | inactive: 0.154 | inactive: -0.179
SOD2 (UniProt P04179) | inactive: -0.041 | inactive: -0.011 | inactive: 0.051 | inactive: -0.004 | inactive: 0.063 | inactive: -0.007 | inactive: 0.038 | inactive: 0.026 | inactive: 0.058 | inactive: 0.004 | inactive: -0.05 | inactive: 0.017 | inactive: 0.069 | inactive: 0.032 | inactive: 0.021 | inactive: 0.019 | inactive: 0.082 | inactive: -0.005 | inactive: -0.04 | inactive: -0.01
SNX8 (UniProt Q9Y5X2) | inactive: -0.072 | inactive: -0.019 | inactive: 0.004 | inactive: 0.037 | inactive: -0.052 | inactive: -0.052 | inactive: 0.001 | inactive: 0.016 | inactive: 0.069 | inactive: 0.023 | inactive: 0 | inactive: -0.052 | inactive: -0.03 | inactive: -0.001 | inactive: -0.032 | inactive: 0.019 | inactive: 0.004 | inactive: 0.045 | inactive: -0.036 | inactive: -0.022
SMPD2 (UniProt O60906) | inactive: -0.095 | inactive: 0.024 | inactive: 0.031 | inactive: -0.087 | inactive: -0.071 | inactive: -0.109 | inactive: 0.024 | inactive: 0.04 | inactive: -0.128 | inactive: 0.05 | inactive: -0.06 | inactive: -0.01 | inactive: -0.052 | inactive: -0.014 | inactive: 0.094 | inactive: 0.062 | inactive: -0.013 | inactive: -0.017 | inactive: -0.093 | inactive: -0.121
SMAD2 (UniProt Q15796) | inactive: -0.019 | inactive: -0.037 | inactive: -0.085 | inactive: -0.123 | inactive: -0.13 | inactive: -0.14 | inactive: 0.023 | inactive: 0.057 | inactive: 0.012 | inactive: 0.022 | inactive: -0.184 | inactive: -0.064 | inactive: 0.005 | inactive: -0.039 | inactive: -0.103 | inactive: -0.051 | inactive: 0.034 | inactive: -0.073 | inactive: 0.009 | inactive: -0.018
SMC6 isoform 2 (UniProt Q96SB8) | inactive: -0.028 | inactive: 0.007 | inactive: 0.04 | inactive: -0.115 | inactive: 0.016 | inactive: 0.022 | inactive: 0.041 | inactive: -0.027 | inactive: 0.036 | inactive: 0.049 | inactive: 0.036 | inactive: 0.012 | inactive: -0.011 | inactive: 0.067 | inactive: 0 | inactive: -0.2 | inactive: -0.014 | inactive: 0.094 | inactive: 0.044 | inactive: -0.02
SMN1 (UniProt Q16637) | inactive: 0.179 | inactive: 0.04 | inactive: 0.025 | inactive: -0.151 | inactive: -0.034 | inactive: -0.013 | inactive: -0.122 | inactive: -0.024 | inactive: -0.041 | inactive: 0.06 | inactive: 0 | inactive: 0.077 | inactive: 0.215 | inactive: 0.107 | inactive: -0.071 | inactive: -0.076 | inactive: 0.03 | inactive: 0.234 | inactive: 0.261 | inactive: -0.019
SOD1 (UniProt P00441) | inactive: -0.003 | inactive: -0.033 | inactive: -0.008 | inactive: -0.002 | inactive: 0.017 | inactive: 0.008 | inactive: -0.067 | inactive: 0.03 | inactive: -0.002 | inactive: 0.04 | inactive: -0.018 | inactive: 0.002 | inactive: 0.038 | inactive: 0.005 | inactive: 0.008 | inactive: -0.021 | inactive: 0.011 | inactive: -0.056 | inactive: 0.007 | inactive: -0.04
SMAD4 (UniProt Q13485) | inactive: 0.009 | inactive: -0.041 | inactive: -0.002 | inactive: 0 | inactive: 0.011 | inactive: -0.024 | inactive: 0.029 | inactive: -0.052 | inactive: -0.038 | inactive: 0.006 | inactive: 0.004 | inactive: -0.03 | inactive: -0.003 | inactive: -0.003 | inactive: -0.013 | inactive: -0.01 | inactive: 0.057 | inactive: -0.019 | inactive: -0.092 | inactive: -0.019
SNRPA (UniProt P09012) | inactive: -0.023 | inactive: -0.106 | inactive: 0.037 | inactive: 0.051 | inactive: 0.188 | inactive: 0.088 | inactive: -0.129 | inactive: -0.039 | inactive: 0.067 | inactive: -0.013 | inactive: 0.016 | inactive: 0.04 | inactive: 0.178 | inactive: 0.047 | inactive: -0.113 | inactive: -0.12 | inactive: -0.062 | inactive: 0.077 | inactive: 0.18 | inactive: -0.047
SNU13, A0A3B3IUA2 | inactive: -0.009 | inactive: -0.129 | inactive: -0.228 | inactive: 0.035 | inactive: 0.084 | inactive: -0.16 | inactive: -0.071 | inactive: 0.132 | inactive: 0.056 | inactive: 0.047 | inactive: -0.005 | inactive: -0.187 | inactive: -0.018 | inactive: -0.2 | inactive: -0.063 | inactive: -0.028 | inactive: -0.063 | inactive: 0.01 | inactive: -0.055 | inactive: -0.017
SNX1 (UniProt Q13596) | inactive: -0.149 | inactive: 0.146 | inactive: -0.133 | inactive: 0 | inactive: -0.191 | active: -0.45 | inactive: 0.07 | inactive: -0.028 | inactive: -0.002 | inactive: 0.057 | inactive: -0.01 | active: -0.375 | active: -0.336 | inactive: 0.011 | inactive: 0.121 | inactive: 0.147 | inactive: 0.054 | inactive: -0.062 | inactive: -0.04 | inactive: -0.094
